From patent publication US20130072553A1, “DRUGS, DERIVATIVES AND ANALOGS CONTAINING ADAMANTANE STRUCTURES OF NEW INDICATION APPLICATIONS OF ANTI-TUMOR” (priority 2009, published 2013)
At least one read-out could not be matched to a standard name with certainty.

Test system: mice sarcoma S180
Test: Inhibition of the sarcoma growth S180 in mice
Type: in vivo
Settings: S180 in Kunming mice, iv, compounds 25, 40, 12.5, 15, 15 mg/kg as listed, CTX and 5-FU 15 mg/kg
Procedure: Tumor strains: mice sarcoma S180 for ascites passaged from Beijing Academy of Military Medical Institute of Pharmacology.
Xenografts cultured S180 tumor cells were implanted subcutaneously into the flank region of mice and tumors were allowed to grow to the desired average size of 100 mg. The mice were randomized into control and treatment groups with 10 mice per group. The control group was injected with the vehicle used to dissolve the drug. […] Injections were I.V. via the tailvein.
The test group inoculated tumor cells […] in mice armpit, administration and observation of seven days.

SMILES: NC12CC3CC(CC(C3)C1)C2 [Compound 1, Amantadine]
- Inhibition rate (%): 31.35%
- Tunor weight (X ± SD): 1.27 ± 0.50 g
